The list does not hold the whole screen: it is rich in T/C values a quarter to a half above the control, in often repeated tests (any T/C) and in doses without a T/C. Other doses and runs of a compound stand elsewhere. T/C gives the treated animals as a percentage of the vehicle group. Some entries give survivors of the animals treated and no T/C: the source files T/C as zero there, which appears to mark a toxic dose or a test without result, not a measured value. Some doses without a T/C left all or most animals alive at the check, yet need not have been tolerated: survival well below the control is almost never listed, so the zero probably covers shortened survival too. Survivors were counted at the toxicity check, usually on the fifth day, unless a day is given; later deaths do not show. Schedule codes are those of the source, taken here to give the interval after Q, in days (D) or hours (H), and the number of doses after X. Some structures stand for samples that the source files as different forms (salt, stereo form or complex); doses refer to the form tested. Some entries hold several experiments; the values are given in rising order. Where survival is the endpoint, this PubChem deposit counts one and a half times the control or more as active, and values a quarter to a half above the control carry no call in these data; other NCI protocols may use other cut-offs. Some T/C values are followed by the survivors on the day toxicity was checked, most often the fifth; without a count, all were alive then.
Test system: CD2F1 mice, L1210 leukemia ip, survival T/C
Experiment: NCI In Vivo Anticancer Drug Screen. Data for tumor model L1210 Leukemia (intraperitoneal) in CD2F1 (CDF1) mice
Details: higher T/C = longer survival
Method in brief: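 Mice carrying a transplanted tumor received test compound or vehicle alone. The value is the measurement in the treated group divided by that in the vehicle-treated control group.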

[1] = T/C endpoint: mean survival time, dose: 400.0 mg/kg/injection, schedule: Q04DX003 (ip), vehicle: saline with Tween-80
[2] = T/C endpoint: mean survival time, dose: 200.0 mg/kg/injection, schedule: Q04DX002 (ip), vehicle: saline with Tween-80
[3] = T/C endpoint: median survival time, dose: 200.0 mg/kg/injection, schedule: Q01DX009 (ip), vehicle: Klucel (hydroxypropylcellulose) (HPC)

Structure (SMILES): CN=C(NC)N/N=C(/c1ccc(Br)cc1)c1ccc(C(F)(F)F)cc1
- survivor count (T/C endpoint: mean survival time, dose: 50.0 mg/kg/injection, schedule: Q04DX002 (ip), vehicle: saline with Tween-80): 3 of 3
- survivor count (T/C endpoint: mean survival time, dose: 100.0 mg/kg/injection, schedule: Q04DX003 (ip), vehicle: saline with Tween-80): 3 of 6
- survivor count (T/C endpoint: mean survival time, dose: 200.0 mg/kg/injection, schedule: Q04DX003 (ip), vehicle: saline with Tween-80): 3 of 6
- survivor count (T/C endpoint: mean survival time, dose: 400.0 mg/kg/injection, schedule: Q01DX001 (ip), vehicle: saline sonified): 0 of 6

Structure (SMILES): COC(=O)Nc1cc2c3c(c1)CCCN3CCC2
- survivor count [1]: 4 of 6

Structure (SMILES): C=CCSc1nc(N)nc2nc[nH]c12
- survivor count (T/C endpoint: mean survival time, dose: 400.0 mg/kg/injection, schedule: Q04DX003 (ip), vehicle: saline sonified): 4 of 6

Structure (SMILES): CC(C)(C)N1CC1
- survivor count [2]: 3 of 3

Structure (SMILES): CNC/C(C)=C/Br
- survivor count (T/C endpoint: mean survival time, dose: 100.0 mg/kg/injection, schedule: Q01DX009 (ip), vehicle: acetone): 2 of 6
- survivor count (T/C endpoint: mean survival time, dose: 200.0 mg/kg/injection, schedule: Q01DX009 (ip), vehicle: acetone): 0 of 6
- survivor count (T/C endpoint: mean survival time, dose: 400.0 mg/kg/injection, schedule: Q04DX003 (ip), vehicle: acetone): 1 of 6

Structure (SMILES): OCC1OC(n2ncc3c(NO)ncnc32)C(O)C1O (centres undefined)
- survivor count (T/C endpoint: mean survival time, dose: 25.0 mg/kg/injection, schedule: Q01DX005 (ip), vehicle: water): 2 of 3
- survivor count (T/C endpoint: mean survival time, dose: 50.0 mg/kg/injection, schedule: Q01DX005 (ip), vehicle: water): 0 of 3
- survivor count (T/C endpoint: mean survival time, dose: 100.0 mg/kg/injection, schedule: Q01DX005 (ip), vehicle: water): 1 of 3
- survivor count (T/C endpoint: mean survival time, dose: 200.0 mg/kg/injection, schedule: Q01DX005 (ip), vehicle: water): 0 of 3
- survivor count (T/C endpoint: mean survival time, dose: 400.0 mg/kg/injection, schedule: Q01DX005 (ip), vehicle: water): 0 of 3

Structure (SMILES): CC(C)CCNc1ncnc2c1cnn2C
- survivor count (T/C endpoint: mean survival time, dose: 200.0 mg/kg/injection, schedule: Q04DX003 (ip), vehicle: saline): 2 of 6
- survivor count (T/C endpoint: mean survival time, dose: 400.0 mg/kg/injection, schedule: Q04DX003 (ip), vehicle: saline): 0 of 6

Structure (SMILES): CNc1nc2c(N)ncnc2n1C1OC(CO)C(O)C1O (centres undefined)
- T/C (T/C endpoint: mean survival time, dose: 25.0 mg/kg/injection, schedule: Q01DX009 (ip), vehicle: saline): 128 % of control
- survivor count (T/C endpoint: mean survival time, dose: 50.0 mg/kg/injection, schedule: Q01DX009 (ip), vehicle: saline): 2 of 6
- survivor count (T/C endpoint: mean survival time, dose: 100.0 mg/kg/injection, schedule: Q01DX009 (ip), vehicle: saline): 1 of 6
- T/C (T/C endpoint: mean survival time, dose: 100.0 mg/kg/injection, schedule: Q04DX002 (ip), vehicle: saline with Tween-80): 133 % of control [2 of 3 alive]
- survivor count (T/C endpoint: mean survival time, dose: 100.0 mg/kg/injection, schedule: Q04DX002 (ip), vehicle: saline): 1 of 6
- survivor count (T/C endpoint: mean survival time, dose: 200.0 mg/kg/injection, schedule: Q01DX009 (ip), vehicle: saline): 1 of 6
- survivor count [2]: 0 of 3
- survivor count (T/C endpoint: mean survival time, dose: 400.0 mg/kg/injection, schedule: Q04DX002 (ip), vehicle: saline with Tween-80): 1 of 3

Structure (SMILES): CC(S)c1ccccc1 (centres undefined)
- survivor count [1]: 3 of 6

Structure (SMILES): Cc1ccc(NCCN(C)C)c2c(=O)c3cc(O)ccc3sc12
- T/C (T/C endpoint: median survival time, dose: 12.5 mg/kg/injection, schedule: Q01DX009 (ip), vehicle: Klucel (hydroxypropylcellulose) (HPC)): 116, 121, 133, 137 % of control
- T/C (T/C endpoint: median survival time, dose: 25.0 mg/kg/injection, schedule: Q01DX009 (ip), vehicle: Klucel (hydroxypropylcellulose) (HPC)): 131, 133, 164, 179 % of control
- T/C (T/C endpoint: median survival time, dose: 50.0 mg/kg/injection, schedule: Q01DX009 (ip), vehicle: Klucel (hydroxypropylcellulose) (HPC)): 162, 166, 207, 222 % of control
- T/C (T/C endpoint: median survival time, dose: 100.0 mg/kg/injection, schedule: Q01DX009 (ip), vehicle: Klucel (hydroxypropylcellulose) (HPC)): 98, 121, 150, 225 % of control
- T/C [3]: 133 % of control
- survivor count [3]: 3 of 6, 4 of 6, 5 of 6

Structure (SMILES): CNC(=O)c1nc2c(nc1NC)n(C)c(=O)n2C
- survivor count (T/C endpoint: mean survival time, dose: 100.0 mg/kg/injection, schedule: Q01DX005 (ip), vehicle: other): 6 of 6
- survivor count (T/C endpoint: mean survival time, dose: 200.0 mg/kg/injection, schedule: Q01DX005 (ip), vehicle: other): 4 of 6
